Laboratory results: patent US20250144242A1
These are yes or no findings as the source states them, for the method shown. Binding seen in cells or lysates may run through a third protein. Some entries that bind do so weakly or less than the wild type. Tags and fused reporters may be left off the sequences shown.

By UniProt entry, the sequences of proteins in these tests, tags left out. Residues count along the entry.
UniProt P01344, residues 25-180: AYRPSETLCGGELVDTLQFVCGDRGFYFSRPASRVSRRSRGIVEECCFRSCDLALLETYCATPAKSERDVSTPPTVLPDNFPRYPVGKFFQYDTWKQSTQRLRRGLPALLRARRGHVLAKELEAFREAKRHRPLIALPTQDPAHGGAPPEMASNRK

Target: T1, 3×FLAG-tagged TMED10 (TMED10-FLAG), human, full-length (human) (UniProt P49755)
T1 sequence (looked up): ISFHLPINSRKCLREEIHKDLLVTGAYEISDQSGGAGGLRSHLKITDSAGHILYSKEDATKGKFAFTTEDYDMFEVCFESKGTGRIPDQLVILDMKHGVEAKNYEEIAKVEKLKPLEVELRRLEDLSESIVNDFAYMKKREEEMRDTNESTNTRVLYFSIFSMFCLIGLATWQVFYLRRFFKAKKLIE
Test: co-immunoprecipitation on anti-FLAG beads, DSP-crosslinked HEK293T lysates, immunoblot

Substance: 3×HA-tagged IGF2 (IGF2-HA), human (from UniProt P01344 25-180) (ligand)
- binding: binds
